Data as given in PubChem BioAssay AID1224827 (NIAID, 2016)
The deposit covers about 3,800 reagents; shown is an unselected part. About 2,200 of them (57%) count as active. 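Active means a strong reporter change in either direction; calls are per siRNA, not per gene; qiagen siRNAs gave weaker effects.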 Entries without a mark were called inactive. Reagents against one gene are numbered here. Not all columns of the deposit are shown.

Test: 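Identify regulators of the macrophage TNF-alpha response to bacterial LPS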 (follow-up of hits)
Cell system: RAW264.7 G9 mouse macrophage reporter clone
Reagent: single siRNA against mouse genes, 100 nM siRNA
Timing: siRNA for 2 days, then LPS about 16 h
Conditions: bacterial lipopolysaccharide (LPS), 10 ng/ml, cells fixed after overnight (about 16 h) stimulation
Read-out: 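TNF promoter reporter red fluorescence in nuclei, background subtracted, normalised per plate and to non-targeting control siRNA, as z-scores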
Reading the numbers: TNF reporter z-score, mean: higher = stronger Tnf promoter reporter signal; gene median z, three same-vendor siRNAs: higher = stronger Tnf reporter signal for the gene
Active means: 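Active siRNA: replicate-mean z-score of 2 or more, or -2 or less; no calls for control wells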

With knock-down of Ube3c (ubiquitin protein ligase E3C) #1 the results were TNF reporter z-score, mean -1.34; gene median z, three same-vendor siRNAs -2.94.
Ube3c (ubiquitin protein ligase E3C) #2 scored TNF reporter z-score, mean -2.94 (active); gene median z, three same-vendor siRNAs -2.94.
Silencing of Ube3c (ubiquitin protein ligase E3C) #3 gave: TNF reporter z-score, mean -5.95 (active); gene median z, three same-vendor siRNAs -2.94.
Ube3c (ubiquitin protein ligase E3C) #4 showed TNF reporter z-score, mean 9.93 (active); gene median z, three same-vendor siRNAs 4.6.
Depletion of Ube3c (ubiquitin protein ligase E3C) #5 resulted in: TNF reporter z-score, mean 6.94 (active); gene median z, three same-vendor siRNAs 4.6.
Ube3c (ubiquitin protein ligase E3C) #6 showed TNF reporter z-score, mean 0.743; gene median z, three same-vendor siRNAs 4.6.
Knock-down of Neil3 (nei like 3 (E. coli)) #1 came out at: TNF reporter z-score, mean -2.69 (active); gene median z, three same-vendor siRNAs -3.04.
With knock-down of Neil3 (nei like 3 (E. coli)) #2, the record shows TNF reporter z-score, mean -3.04 (active); gene median z, three same-vendor siRNAs -3.04.
With knock-down of Neil3 (nei like 3 (E. coli)) #3 the results were TNF reporter z-score, mean -3.62 (active); gene median z, three same-vendor siRNAs -3.04.
Neil3 (nei like 3 (E. coli)) #4 showed TNF reporter z-score, mean 2.28 (active); gene median z, three same-vendor siRNAs 0.28.
Neil3 (nei like 3 (E. coli)) #5 showed TNF reporter z-score, mean 1.07; gene median z, three same-vendor siRNAs 0.28.
Against Neil3 (nei like 3 (E. coli)) #6, the values are TNF reporter z-score, mean -0.308; gene median z, three same-vendor siRNAs 0.28.

Active calls, of those listed so far:
Ube3c (ubiquitin protein ligase E3C) #2 — TNF reporter z-score, mean = -2.94 (active); gene median z, three same-vendor siRNAs = -2.94
Ube3c (ubiquitin protein ligase E3C) #3 — TNF reporter z-score, mean = -5.95 (active); gene median z, three same-vendor siRNAs = -2.94
Ube3c (ubiquitin protein ligase E3C) #4 — TNF reporter z-score, mean = 9.93 (active); gene median z, three same-vendor siRNAs = 4.6
Ube3c (ubiquitin protein ligase E3C) #5 — TNF reporter z-score, mean = 6.94 (active); gene median z, three same-vendor siRNAs = 4.6
Neil3 (nei like 3 (E. coli)) #1 — TNF reporter z-score, mean = -2.69 (active); gene median z, three same-vendor siRNAs = -3.04
Neil3 (nei like 3 (E. coli)) #2 — TNF reporter z-score, mean = -3.04 (active); gene median z, three same-vendor siRNAs = -3.04
Neil3 (nei like 3 (E. coli)) #3 — TNF reporter z-score, mean = -3.62 (active); gene median z, three same-vendor siRNAs = -3.04
Neil3 (nei like 3 (E. coli)) #4 — TNF reporter z-score, mean = 2.28 (active); gene median z, three same-vendor siRNAs = 0.28

Continued:
Against Hmga1 (high mobility group AT-hook 1) #1, the entry reads TNF reporter z-score, mean -1.9; gene median z, three same-vendor siRNAs -2.81.
With knock-down of Hmga1 (high mobility group AT-hook 1) #2, the record shows TNF reporter z-score, mean -2.81 (active); gene median z, three same-vendor siRNAs -2.81.
Hmga1 (high mobility group AT-hook 1) #3 gave TNF reporter z-score, mean -5.42 (active); gene median z, three same-vendor siRNAs -2.81.
Depletion of Hmga1 (high mobility group AT-hook 1) #4 came out at: TNF reporter z-score, mean 2.23 (active); gene median z, three same-vendor siRNAs 1.27.
After knock-down of Hmga1 (high mobility group AT-hook 1) #5, the screen gave TNF reporter z-score, mean 1.45; gene median z, three same-vendor siRNAs 1.27.
Hmga1 (high mobility group AT-hook 1) #6 gave TNF reporter z-score, mean 1.2; gene median z, three same-vendor siRNAs 1.27.
Against Cat (catalase) #1 the deposit lists TNF reporter z-score, mean -0.00975; gene median z, three same-vendor siRNAs -1.49.
Cat (catalase) #2 showed TNF reporter z-score, mean -1.8; gene median z, three same-vendor siRNAs -1.49.
Cat (catalase) #3 scored TNF reporter z-score, mean -2.16 (active); gene median z, three same-vendor siRNAs -1.49.
Cat (catalase) #4 scored TNF reporter z-score, mean -0.123; gene median z, three same-vendor siRNAs -1.16.
After knock-down of Cat (catalase) #5, the screen gave TNF reporter z-score, mean -0.119; gene median z, three same-vendor siRNAs -1.16.
Against Cat (catalase) #6, the values are TNF reporter z-score, mean -1.95; gene median z, three same-vendor siRNAs -1.16.
Polr2b (polymerase (RNA) II (DNA directed) polypeptide B) #1 gave TNF reporter z-score, mean 2.68 (active); gene median z, three same-vendor siRNAs -1.92.
Depletion of Polr2b (polymerase (RNA) II (DNA directed) polypeptide B) #2 gave: TNF reporter z-score, mean -1.92; gene median z, three same-vendor siRNAs -1.92.
Against Polr2b (polymerase (RNA) II (DNA directed) polypeptide B) #3, the entry reads TNF reporter z-score, mean -5.09 (active); gene median z, three same-vendor siRNAs -1.92.
With knock-down of Polr2b (polymerase (RNA) II (DNA directed) polypeptide B) #4, the record shows TNF reporter z-score, mean 0.0226; gene median z, three same-vendor siRNAs -2.53.
For Polr2b (polymerase (RNA) II (DNA directed) polypeptide B) #5 the deposit lists TNF reporter z-score, mean -2.66 (active); gene median z, three same-vendor siRNAs -2.53.
Polr2b (polymerase (RNA) II (DNA directed) polypeptide B) #6 scored TNF reporter z-score, mean -3.01 (active); gene median z, three same-vendor siRNAs -2.53.
Knock-down of Gzmf (granzyme F) #1 came out at: TNF reporter z-score, mean 5.65 (active); gene median z, three same-vendor siRNAs -4.12.
Gzmf (granzyme F) #2 gave TNF reporter z-score, mean -4.12 (active); gene median z, three same-vendor siRNAs -4.12.
For Gzmf (granzyme F) #3, the values are TNF reporter z-score, mean -5.46 (active); gene median z, three same-vendor siRNAs -4.12.
After knock-down of Gzmf (granzyme F) #4, the screen gave TNF reporter z-score, mean -0.536; gene median z, three same-vendor siRNAs -2.2.
Against Gzmf (granzyme F) #5 the deposit lists TNF reporter z-score, mean -2.48 (active); gene median z, three same-vendor siRNAs -2.2.
Knock-down of Gzmf (granzyme F) #6 came out at: TNF reporter z-score, mean -2.88 (active); gene median z, three same-vendor siRNAs -2.2.
